Read-outs that look alike come from different tables or passages of the source. These are yes or no findings as the source states them, for the method shown. In cells and extracts the contact can be indirect. These calls come from enrichment with a bait or labelling near it, and not all partners need be listed. Sequences can lack the tags named with a protein.
Tests used:
[1] = biological target: T1, HA-tagged mGBP2 (murine guanylate binding protein 2) (mouse) (UniProt Q9Z0E6); test: affinity purification with mass spectrometry
T1 sequence: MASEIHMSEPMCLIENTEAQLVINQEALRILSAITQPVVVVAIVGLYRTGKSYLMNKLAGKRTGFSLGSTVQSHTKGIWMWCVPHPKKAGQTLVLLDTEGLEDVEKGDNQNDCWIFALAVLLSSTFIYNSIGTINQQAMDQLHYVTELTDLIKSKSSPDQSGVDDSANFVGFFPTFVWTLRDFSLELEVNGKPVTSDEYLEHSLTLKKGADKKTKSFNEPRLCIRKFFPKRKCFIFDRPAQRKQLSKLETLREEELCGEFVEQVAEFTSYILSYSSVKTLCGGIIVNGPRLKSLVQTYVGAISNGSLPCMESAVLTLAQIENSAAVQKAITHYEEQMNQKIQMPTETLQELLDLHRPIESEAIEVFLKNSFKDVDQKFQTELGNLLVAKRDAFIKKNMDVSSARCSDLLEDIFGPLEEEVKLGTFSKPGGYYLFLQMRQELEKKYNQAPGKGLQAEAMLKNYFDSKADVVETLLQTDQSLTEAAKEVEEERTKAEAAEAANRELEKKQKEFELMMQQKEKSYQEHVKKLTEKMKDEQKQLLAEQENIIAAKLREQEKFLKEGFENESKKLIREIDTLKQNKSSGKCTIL

Protein sequences, listed by entry. Tags and fused reporters are not part of them.
UniProt O08573: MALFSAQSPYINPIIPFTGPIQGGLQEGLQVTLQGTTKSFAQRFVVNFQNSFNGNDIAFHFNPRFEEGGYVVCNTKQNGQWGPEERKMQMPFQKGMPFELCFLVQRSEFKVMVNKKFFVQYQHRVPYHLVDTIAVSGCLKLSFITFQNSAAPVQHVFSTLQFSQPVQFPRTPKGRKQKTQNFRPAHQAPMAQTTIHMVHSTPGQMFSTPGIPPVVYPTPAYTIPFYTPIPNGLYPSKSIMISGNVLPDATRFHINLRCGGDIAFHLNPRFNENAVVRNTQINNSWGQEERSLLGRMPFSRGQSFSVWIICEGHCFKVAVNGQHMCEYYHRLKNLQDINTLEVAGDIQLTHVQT

[2] = biological target: T1, HA-tagged mGBP2 (murine guanylate binding protein 2) (mouse); test: affinity purification with mass spectrometry; remark: listed apart in the source

Galectin-9 (Gal9), endogenous (from UniProt O08573 1-353)
binding [1]: binds

B1: mGBP1 (murine guanylate binding protein 1) (protein, UniProt Q01514 1-589)
chain: MASEIHMSEPMCLIENTEAQLVINQEALRILSAITQPVVVVAIVGLYRTGKSYLMNKLAGKRTGFSLGSTVQSHTKGIWMWCVPHPKKAGQTLVLLDTEGLEDVEKGDNQNDCWIFALAVLLSSTFIYNSIGTINQQAMDQLHYVTELTDLIKSKSSPDQSDVDNSANFVGFFPIFVWTLRDFSLDLEFDGESITPDEYLETSLALRKGTDENTKKFNMPRLCIRKFFPKRKCFIFDRPGDRKQLSKLEWIQEDQLNKEFVEQVAEFTSYIFSYSGVKTLSGGITVNGPRLKSLVQTYVSAICSGELPCMENAVLTLAQIENSAAVQKAITYYEEQMNQKIHMPTETLQELLDLHRTCEREAIEVFMKNSFKDVDQKFQEELGAQLEAKRDAFVKKNMDMSSAHCSDLLEGLFAHLEEEVKQGTFYKPGGYYLFLQRKQELEKKYIQTPGKGLQAEVMLRKYFESKEDLADTLLKMDQSLTEKEKQIEMERIKAEAAEAANRALAEMQKKHEMLMEQKEQSYQEHMKQLTEKMEQERKELMAEQQRIISLKLQEQERLLKQGFQNESLQLRQEIEKIKNMPPPRSCTIL
binding [2]: binds

B2: mGBP5 (murine guanylate binding protein 5) (protein, UniProt Q8CFB4 1-590)
chain: MAPEIHMPEPLCLIGSTEGHLVTNQEALKILSAITQPVVVVAIVGLYRTGKSYLMNKLAGKEKGFSVGSTVQSHTKGIWMWCVPHPQKPDHTLVLLDTEGLGDVEKDDKKNDTQIFALAILLSSTFVYNTMNKIDQGAIDLLHNVTELTDLLRTRNSSDSNQTEGEGPADMSFFPDLVWTLRDFFLDLQANGHAITSDEYLENSLKLKQGSDERTQTFNLPRLCIQKFFPVKKCFVFDAPALGSKLSQLPTLSNEELNSDFVQDLSEFCSHIFTQSKTKTLPGGIQVNGPRLESLVLTYVDAINSGALPSIENTVVTLARRENSAAVQKAIGHYDQLMSEKVQLPTETLQELLDLHRTCEREAIEIFRKHSFKDEGEFFQKELESLLSAKQDEICKKNADASAALCSTLLGSIFKPLEQEVAQEFYHKPGGHKLFLQRMEQLKANYRQQPGKGTQAEEVLQTYLNAKETVSRTILQTDQVLTDKEIQSKAEQERAEAARLEAQRLEAIRIQEEQRKAEMERQHQEQLRQIALEKARVAQEQQWILKQRAQEEADRIKAEQEAQLRALQQQLQHMREMNHHRRHHHDCVIS
binding [2]: binds

Reference: publication doi:10.1101/2021.12.28.474342
